Some of the results follow. Shown are side measurements of this screen, not its main read-out; they come without a call. Most of these compounds were active or inconclusive in the main read-out, so they are no random draw. Words in brackets tell the shape of the fitted curve; partial curves, single points and poor fits give uncertain potencies.
Experiment: qHTS Assay for Modulators of Lamin A Splicing
Conditions: HeLa LMNA splicing GFP/RFP minigene ratio, 48 h
In short: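 S3 HeLa stable clones carrying a lamin A-EGFP splicing minigene plus DsRed2 were seeded at 600 cells/well in Opti-MEM with 2% FBS, pin-dosed and incubated 48 h at 37°C. Acumen cytometry (488 nm) gave the GFP/RFP total-intensity ratio.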

[1] = measured here: RFP viability control channel
[2] = measured here: GFP splicing reporter channel

CCOC(=O)c1c(S(=O)(=O)NCC(=O)Nc2ccc(C)c(Cl)c2)c(C)n(C)c1C
AC50 [1]: 10 µM [falling, single point]

COc1ccc2nc(NC(=O)C3CCN(S(=O)(=O)c4cccs4)CC3)sc2c1
AC50 [1]: 10 µM [rising, partial curve]

COc1ccc(-c2csc(NC(=O)/C(N=Nc3ccccc3)=C(\C)O)n2)cc1
AC50 [2]: 0.0708 µM [falling, full curve, poor fit]
AC50 [1]: 0.0251 µM [falling, full curve, poor fit]

Cc1cc(S(=O)(=O)N2CCCC2)ccc1OCC(=O)NC1CCCC1
AC50 [1]: 35.5 µM [falling, partial curve, poor fit]

O=C(NC(NC1CCS(=O)(=O)C1)C(Cl)(Cl)Cl)c1ccc(Br)cc1 (centres undefined)
AC50 [2]: 12.6 µM [falling, single point]

O/N=C1\CCCC\C1=C/c1ccccc1
AC50 [2]: 0.00447 µM [falling, full curve, poor fit]
AC50 [1]: 0.00447 µM [falling, full curve, poor fit]

O=c1c(CCc2ccccc2)nc2cncnc2n1Cc1ccccc1
AC50 [2]: 0.1 µM [falling, full curve, poor fit]

CCCC(C)C(=O)Nc1nc(C)c(-c2csc(Nc3cc(Cl)ccc3C)n2)s1 (centres undefined)
AC50 [2]: 4.47 µM [falling, partial curve, poor fit]
AC50 [1]: 5.01 µM [falling, partial curve, poor fit]

CCOc1ccc(C2c3[nH]c4ccccc4c3CCN2C(=O)Cc2cccc(OCC)c2OCC)cc1 (centres undefined)
AC50 [2]: 1.12 µM [falling, full curve, poor fit]

Cc1ccnc(NC(=O)c2ccc(Cl)c([N+](=O)[O-])c2)c1
AC50 [1]: 0.141 µM [falling, full curve, poor fit]

CCOc1ccc(S(=O)(=O)N2CCN(C(=O)c3cc4c(s3)CCCC4)CC2)cc1
AC50 [1]: 20 µM [rising, partial curve, poor fit]

Cc1cc(C)c2c(c1)-c1c(ssc1=S)C(C)(C)N2C(=O)CN1C(=O)c2ccccc2C1=O
AC50 [1]: 12.6 µM [rising, single point]

CCCC(=O)NC(c1ccco1)c1cc(Cl)c2cccnc2c1O (centres undefined)
AC50 [1]: 11.2 µM [rising, partial curve]

Cn1cc(C(=O)NCCO)c(=O)c2ccccc21
AC50 [1]: 35.5 µM [falling, partial curve]

O=C(CCN1CCN(C/C=C/c2ccccc2)CC1)Nc1ccc(Cl)cc1
AC50 [2]: 17.8 µM [rising, single point]
AC50 [1]: 17.8 µM [rising, single point]

O=C(CSCC(=O)N1CCCCC1)Nc1nc(-c2ccccc2)c(-c2ccccc2)s1
AC50 [2]: 10 µM [rising, partial curve]
AC50 [1]: 14.1 µM [rising, partial curve]

COc1cccc(C(=O)Nc2ccc(-c3nc4ccccc4s3)cc2Cl)c1
AC50 [1]: 0.0282 µM [falling, full curve, poor fit]

Cn1cc([N+](=O)[O-])c(C(=O)Nc2ccn(C34CC5CC(CC(C5)C3)C4)n2)n1
AC50 [2]: 35.5 µM [falling, single point]

Cc1c(N/C(=N/S(=O)(=O)c2ccc(Cl)cc2)c2ccccc2)c(=O)n(-c2ccccc2)n1C
AC50 [2]: 1.58 µM [rising, partial curve, poor fit]

COc1ccc(CCNC(=O)CSc2nc(N)c(C#N)c(-c3cccs3)c2C#N)cc1OC
AC50 [2]: 14.1 µM [rising, single point]
AC50 [1]: 15.8 µM [rising, single point]

CN(C)C=NCCn1c(N2CCOCC2)nc2c1c(=O)n(C)c(=O)n2C
AC50 [2]: 0.794 µM [falling, partial curve]
AC50 [1]: 0.794 µM [falling, partial curve]

COCCNC(=O)c1ccc(-n2c(-c3ccccc3)cc3c2CCCCC3)cc1
AC50 [1]: 14.1 µM [rising, partial curve, poor fit]

N#CC(C#N)=C(Nc1ccc(F)cc1)SCc1cccc(F)c1
AC50 [2]: 2.51 µM [rising, full curve, poor fit]
AC50 [1]: 3.55 µM [rising, full curve]

CCCCS(=O)(=O)N1C2=NC(C(=O)OC)=C(C(=O)OC)[C@@H]3N(C)c4ccc(OC)cc4[C@]23C[C@H]1C(=O)OC
AC50 [1]: 0.398 µM [falling, partial curve]

O=C1CC(C(=O)Nc2cccc(Cl)c2)n2ncnc2N1 (centres undefined)
AC50 [1]: 0.02 µM [falling, full curve, poor fit]

N#Cc1ccc(N=c2ssnc2Cl)cc1
AC50 [2]: 12.6 µM [rising, single point]

CCOC(=O)c1cc(-c2ccc3c(c2)OCCO3)n[nH]1
AC50 [2]: 5.62 µM [rising, partial curve, poor fit]

CCn1c(=O)n(CC)c2cc(S(=O)(=O)N3CCC(c4ccccc4)CC3)ccc21
AC50 [2]: 20 µM [rising, single point]
AC50 [1]: 17.8 µM [rising, single point]

N#CC1=C2SCC(O)(c3ccccc3)N2C(=O)CC1c1ccccc1 (centres undefined)
AC50 [1]: 12.6 µM [rising, single point]

CC(=O)Nc1ccc2nc(C)n(Cc3ccc(Cl)cc3)c(=O)c2c1
AC50 [1]: 22.4 µM [rising, single point]

CCOC(=O)CSC1=C(C#N)C(c2sccc2C)CC(=O)N1 (centres undefined)
AC50 [1]: 5.62 µM [falling, full curve]

COc1ccccc1OCCNc1cc(N2CCOCC2)ccc1[N+](=O)[O-]
AC50 [1]: 3.16 µM [rising, partial curve]

CCCCNC(=S)Nc1cccc2cnccc12
AC50 [1]: 35.5 µM [rising, single point]

CN1C(=O)c2ccccc2Sc2ccc(NC(=O)COc3ccccc3)cc21
AC50 [2]: 0.891 µM [rising, full curve, poor fit]
AC50 [1]: 2.82 µM [rising, full curve]

COc1ccc(/C=N/NC(=O)c2cccc([N+](=O)[O-])c2)cc1OC
AC50 [2]: 1.26 µM [rising, partial curve, poor fit]

CCOc1ccc(-c2nc(N)ncc2Oc2ccccc2Br)c(O)c1
AC50 [2]: 35.5 µM [falling, single point]
AC50 [1]: 35.5 µM [falling, single point]

C=CCn1cc(/C=N/Nc2nc3ccccc3[nH]2)c2ccccc21
AC50 [2]: 12.6 µM [rising, single point]
AC50 [1]: 14.1 µM [rising, partial curve]

Cc1ccc(-c2nc(CSCC(=O)NCCN3CCN(Cc4ccccc4)CC3)c(C)o2)cc1
AC50 [2]: 7.94 µM [rising, partial curve, poor fit]
AC50 [1]: 12.6 µM [rising, partial curve]

O=c1oc(-c2ccccc2NS(=O)(=O)c2ccc3ccccc3c2)nc2ccccc12
AC50 [1]: 31.6 µM [rising, single point]

Cc1cc(N/N=C\c2ccccc2)nc(-c2ccccc2O)n1
AC50 [1]: 0.447 µM [rising, partial curve, poor fit]

COC(=O)[C@@]1(Cc2ccccc2)[C@H]2c3cc(C(=O)N4CCCC4)n(Cc4ccsc4Br)c3C[C@H]2CN1C(=O)c1ccccc1
AC50 [2]: 1 µM [rising, partial curve, poor fit]
AC50 [1]: 15.8 µM [rising, partial curve]

COc1ccc(C2=NN(C(=O)c3cccs3)C(O)(C(F)(F)F)C2)cc1 (centres undefined)
AC50 [1]: 35.5 µM [falling, single point]

CC[C@H](Cc1c(I)cc(I)c(N)c1I)C(=O)O
AC50 [2]: 0.316 µM [falling, full curve, poor fit]
AC50 [1]: 0.316 µM [falling, full curve, poor fit]

COc1ccc(CNC(=O)C(c2ccco2)N(Cc2cccs2)C(=O)Cc2cccs2)cc1 (centres undefined)
AC50 [2]: 5.62 µM [rising, full curve, poor fit]
AC50 [1]: 14.1 µM [rising, single point]

COc1cc(OC)c(C(=O)Nc2ccccc2-c2ccccc2)cc1OC
AC50 [1]: 35.5 µM [rising, single point]

CN1C(C(=O)Nc2ccccn2)=C(O)c2sccc2S1(=O)=O
AC50 [2]: 0.000891 µM [falling, full curve, poor fit]
AC50 [1]: 0.000891 µM [falling, full curve, poor fit]

O=C(N/N=C/c1ccc(N2CCOCC2)s1)c1ccccc1Br
AC50 [1]: 28.2 µM [falling, partial curve]

CCOC(=O)c1cc(-c2ccccc2)sc1NC(=O)C(C)Sc1nnc(C)s1 (centres undefined)
AC50 [2]: 20 µM [rising, single point]

CC1(C)C(=O)OC(c2cc(Br)ccc2O)C(C)(C)C1=O (centres undefined)
AC50 [1]: 12.6 µM [rising, single point]

O=C(N/N=C/c1ccc(O)cc1O)/C(=C/c1ccccc1)CCO
AC50 [1]: 10 µM [rising, partial curve]

COc1cc(OC)c2c(OC)c(-c3ccc4c(c3)OCO4)c(=O)oc2c1
AC50 [2]: 14.1 µM [falling, single point]
AC50 [1]: 12.6 µM [falling, single point]

CSc1ccc(NC(=O)N2CCN(c3nc4ccccc4s3)CC2)cc1
AC50 [1]: 5.01 µM [rising, full curve]

CSc1cccc(NC(=O)C2CCN(c3ncnc4c3nc3n4CCCCC3)CC2)c1
AC50 [2]: 8.91 µM [falling, partial curve]
AC50 [1]: 8.91 µM [falling, partial curve, poor fit]

CCc1ccc2oc(=O)cc(CN3CCC(C)CC3)c2c1
AC50 [2]: 0.2 µM [falling, partial curve, poor fit]
AC50 [1]: 0.0251 µM [falling, full curve]

Source: PubChem BioAssay AID1487 (National Center for Advancing Translational Sciences (NCATS), 2009)
